Reference: PubChem BioAssay AID602196 (INSERM, 2012)

- Screen: 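Modifiers of cisplatin sensitivity in A549 cells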
- Cell system: human A549 lung cancer cells
- Reagent: siRNA pair against human genes
- Time to read-out: 48 h transfection before cisplatin; time from cisplatin to read-out not stated
- Challenge: cisplatin at a dose killing half of control-siRNA cells; exact dose and duration not given
- Detection: 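Shift in cisplatin death relative to control siRNA, from -50 (all cells die) to +50 (no cells die); siRNAs harmful on their own scored 0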
- Direction: two-siRNA summed score (-2 to +2): higher = both siRNAs protect from cisplatin killing; -2 means both sensitise; mean protection from cisplatin (shift in death) and protection from cisplatin (shift in death), siRNA C and protection from cisplatin (shift in death), siRNA D: higher = protection from cisplatin killing
- Hit rule: 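siRNAs harmful alone (LDH or WST-1) get 0; others get +1 for less and -1 for more cisplatin killing; genes are active when the two siRNAs give the same sign, summing to ±2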
- Calls: active = both siRNAs shift cisplatin killing the same way; inactive = no consistent shift, or siRNA harmful alone
In all, the deposit lists about 23,000 reagents; shown is a random part of them. 455 of all reagents (2%) count as active. 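Active includes both protection and sensitisation; some change values fall well beyond the stated -50 to +50 range.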 Not stated in the record: the amount of reagent.

gene | PubChem SID | two-siRNA summed score (-2 to +2) | mean protection from cisplatin (shift in death) (%) | protection from cisplatin (shift in death), siRNA C (%) | protection from cisplatin (shift in death), siRNA D (%) | Outcome
RAB32 | SID131502932 | 0 | -18.1 | -26.9 | -9.2 | inactive
DLAT | SID131515010 | 0 | 8.5 | 4.3 | 12.8 | inactive
LINC02210 | SID131510552 | 0 | 3.4 | 9.9 | -3.2 | inactive
TMEM205 | SID131522374 | 1 | 18 | 20.7 | 15.3 | inactive
ASXL1 | SID131509461 | 0 | 2.2 | 1.4 | 3 | inactive
DSCR8 | SID131508489 | 0 | 1.1 | 3.2 | -0.9 | inactive
UBE2E2 | SID131510280 | 0 | 3.1 | 4 | 2.1 | inactive
STIM2 | SID131516096 | 0 | 10.2 | 14.4 | 6.1 | inactive
REXO1L1P | SID131511557 | 0 | 4.5 | 6.6 | 2.3 | inactive
DNASE1L3 | SID131505037 | 0 | -3.9 | -4.5 | -3.4 | inactive
KNG1 | SID131504611 | 0 | -4.9 | -5.3 | -4.6 | inactive
ZNF791 | SID131518059 | 0 | 16.2 | 27.7 | 4.8 | inactive
TAPT1 | SID131522733 | 1 | 22.6 | 30.7 | 14.5 | inactive
DOCK1 | SID131508873 | 0 | 1.6 | 5.2 | -2 | inactive
TAS2R14 | SID131514021 | 0 | 7.3 | 9.4 | 5.2 | inactive
LOC399768 | SID131501770 | -1 | -7.5 | 1 | -16 | inactive
PHF20 | SID131505000 | 0 | -4 | -8.6 | 0.6 | inactive
LOC345643 | SID131505717 | 0 | -2.7 | -2.1 | -3.2 | inactive
RAN | SID131503418 | 0 | -10.2 | -6.2 | -14.2 | inactive
TEX26 | SID131510506 | 0 | 3.3 | -6.7 | 13.3 | inactive
LINC01973 | SID131509886 | 0 | 2.6 | 2.7 | 2.5 | inactive
FAAP24 | SID131513388 | 0 | 6.5 | 11.1 | 1.9 | inactive
IFNA4 | SID131514215 | 0 | 7.5 | 8 | 7.1 | inactive

3 entries from above, showing only “protection from cisplatin (shift in death), siRNA C (%)”.
REXO1L1P [SID131511557] = 6.6
DNASE1L3 [SID131505037] = -4.5
KNG1 [SID131504611] = -5.3
